Data source: PubChem BioAssay AID504808 (Drosophila RNAi Screening Center, 2011)

- Purpose: 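Chromatin factors that keep E2F targets switched off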 (primary screen)
- Cell system: Drosophila S2 cells
- Reagent: long dsRNA against Drosophila genes
- Measured: 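Dual luciferase plate measurements; E2F-specific signal taken as firefly over Renilla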
- Reading the numbers: E2F firefly: higher = more E2F reporter activity; Renilla normaliser: higher = more normaliser reporter signal
- Hit rule: 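Called active if the normalised E2F reporter went up by over 50%; the cutoff is arbitrary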
The screen tested about 21,000 reagents; shown is an unselected part of those that have a named target and a result. Over the whole deposit, 18 (0.084%) were called active. 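Raw counts without plate normalisation, one of two replicates; the ratio scores behind the calls were not deposited.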 Names joined by + are all predicted targets of the reagent. The record does not give: the amount of reagent, the time to read-out.

Silencing of CG31751 (GeneID 35118) [DRSC02464] resulted in: E2F firefly, rep 1 = 73355; Renilla normaliser, rep 1 = 3465; inactive.
Depletion of CG31751 (GeneID 35118) [DRSC02465] resulted in: E2F firefly, rep 1 = 86741; Renilla normaliser, rep 1 = 4097; inactive.
PIG-G (GeneID 35685) [DRSC06823] scored E2F firefly, rep 1 = 78314; Renilla normaliser, rep 1 = 3318; inactive.
For beat-Ia (GeneID 34947) [DRSC03489], the entry reads E2F firefly, rep 1 = 1.08e5; Renilla normaliser, rep 1 = 4646; inactive.
csw (GeneID 45278) [DRSC18756] gave E2F firefly, rep 1 = 1.28e5; Renilla normaliser, rep 1 = 6946; inactive.
Depletion of CG12483 (GeneID 50161) [DRSC08278] gave: E2F firefly, rep 1 = 1.02e5; Renilla normaliser, rep 1 = 4209; inactive.

2 neighbouring reagents already listed, quoted:
beat-Ia (GeneID 34947) [DRSC03489] | E2F firefly, rep 1 = 1.08e5; Renilla normaliser, rep 1 = 4646; Call = inactive
csw (GeneID 45278) [DRSC18756] | E2F firefly, rep 1 = 1.28e5; Renilla normaliser, rep 1 = 6946; Call = inactive

The results go on:
Knock-down of Polr1A (GeneID 36617) [DRSC07535] gave: E2F firefly, rep 1 = 2884; Renilla normaliser, rep 1 = 224; inactive.
Silencing of CG11562 (GeneID 33200) [DRSC00316] resulted in: E2F firefly, rep 1 = 1.59e5; Renilla normaliser, rep 1 = 5892; inactive.
CG11601 (GeneID 33197) [DRSC00318] showed E2F firefly, rep 1 = 1.61e5; Renilla normaliser, rep 1 = 5084; inactive.
Silencing of Pkcdelta (GeneID 32191) [DRSC19356] resulted in: E2F firefly, rep 1 = 72023; Renilla normaliser, rep 1 = 4070; inactive.
For Pkcdelta (GeneID 32191) [DRSC19399], the entry reads E2F firefly, rep 1 = 1.19e5; Renilla normaliser, rep 1 = 6423; inactive.
After knock-down of CG10510 (GeneID 40341) [DRSC11614], the record shows E2F firefly, rep 1 = 77325; Renilla normaliser, rep 1 = 3638; inactive.
With knock-down of CG3408 (GeneID 39107) [DRSC10360], the screen gave E2F firefly, rep 1 = 1.32e5; Renilla normaliser, rep 1 = 7568; inactive.
CG34025 (GeneID 3885633) [DRSC08014] showed E2F firefly, rep 1 = 1.29e5; Renilla normaliser, rep 1 = 4219; inactive.
Met75Ca + Met75Cb [DRSC09549] gave E2F firefly, rep 1 = 1.27e5; Renilla normaliser, rep 1 = 4127; inactive.
After knock-down of Met75Ca + Met75Cb [DRSC11221], the record shows E2F firefly, rep 1 = 1.62e5; Renilla normaliser, rep 1 = 9285; inactive.
After knock-down of BRWD3 (GeneID 42898) [DRSC15369], the screen gave E2F firefly, rep 1 = 79445; Renilla normaliser, rep 1 = 3868; inactive.
BRWD3 (GeneID 42898) [DRSC16032] showed E2F firefly, rep 1 = 1.16e5; Renilla normaliser, rep 1 = 6365; inactive.
Knock-down of CG6296 (GeneID 43246) [DRSC16013] gave: E2F firefly, rep 1 = 1713; Renilla normaliser, rep 1 = 940; inactive.
